These are yes or no findings as the source states them, for the method shown. Some results given as binding are weak or reduced against the parent protein; the word gives no strength.
T1: proline rich domain of RGS9-2, amino acids 460-672 of human RGS9 (bait, plasmid pAS1-RGS9CT) (human) (UniProt O75916)
T1 sequence: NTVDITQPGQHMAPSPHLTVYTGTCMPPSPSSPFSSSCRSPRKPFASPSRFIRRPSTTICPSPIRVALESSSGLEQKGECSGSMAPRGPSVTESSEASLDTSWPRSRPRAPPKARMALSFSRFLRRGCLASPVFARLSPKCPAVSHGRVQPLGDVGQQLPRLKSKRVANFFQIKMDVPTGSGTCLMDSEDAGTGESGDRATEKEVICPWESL

T2: evectin 1, shorter splice form lacking exon 2 (human) (UniProt Q9UF11)
T2 sequence: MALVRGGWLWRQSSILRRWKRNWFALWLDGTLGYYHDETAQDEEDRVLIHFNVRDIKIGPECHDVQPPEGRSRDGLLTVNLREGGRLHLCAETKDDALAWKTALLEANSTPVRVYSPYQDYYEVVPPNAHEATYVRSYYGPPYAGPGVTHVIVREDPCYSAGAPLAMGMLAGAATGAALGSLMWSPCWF


Columns and labels:
[1] = target: T1, proline rich domain of RGS9-2, amino acids 460-672 of human RGS9 (bait, plasmid pAS1-RGS9CT) (human); assay: yeast two-hybrid assay
[2] = target: T2, evectin 1, shorter splice form lacking exon 2 (human); assay: yeast two-hybrid assay

Binder	binding [1]	binding [2]
RGS9 ΔC47 (C terminal deletion mutant of the RGS9-2 proline rich domain) (protein) NTVDITQPGQHMAPSPHLTVYTGTCMPPSPSSPFSSSCRSPRKPFASPSRFIRRPSTTICPSPIRVALESSSGLEQKGECSGSMAPRGPSVTESSEASLDTSWPRSRPRAPPKARMALSFSRFLRRGCLASPVFARLSPKCPAVSHGRVQPLGDVGQQLPRLKSKR		binds
EVT ΔC27 (C terminal deletion mutant of evectin) (protein) MALVRGGWLWRQSSILRRWKRNWFALWLDGTLGYYHDETAQDEEDRVLIHFNVRDIKIGPECHDVQPPEGRSRDGLLTVNLREGGRLHLCAETKDDALAWKTALLEANSTPVRVYSPYQDYYEVVPPNAHEATYVRSYYGPPYAGPGVTHVIVREDPCYSAGA	binds	

Results, then the binder that gave them:

binding [1]	binding [2]	Binder
binds		evectin 1, shorter splice form lacking exon 2 (protein) MALVRGGWLWRQSSILRRWKRNWFALWLDGTLGYYHDETAQDEEDRVLIHFNVRDIKIGPECHDVQPPEGRSRDGLLTVNLREGGRLHLCAETKDDALAWKTALLEANSTPVRVYSPYQDYYEVVPPNAHEATYVRSYYGPPYAGPGVTHVIVREDPCYSAGAPLAMGMLAGAATGAALGSLMWSPCWF
	binds	RGS9 ΔC70 (C terminal deletion mutant of the RGS9-2 proline rich domain) (protein) NTVDITQPGQHMAPSPHLTVYTGTCMPPSPSSPFSSSCRSPRKPFASPSRFIRRPSTTICPSPIRVALESSSGLEQKGECSGSMAPRGPSVTESSEASLDTSWPRSRPRAPPKARMALSFSRFLRRGCLASPVFARLSPKCPA

— US20030166850A1 (Pfizer, published 2003)
